Test results taken from article PMC8083959.
No constants are given. Whether binding was seen depends on the method and setting. For some assays here: Tags and fused reporters may be left off the sequences shown. Values belong to the binder of their own block, whether it stands above or below them.

Legend:
[1] = target: PDZD7 HHD (harmonin homology domain, a.a. 546–646) (Mus musculus) (UniProt E9Q9W7); experiment: SEC-MALS; Superose 12 10/300 GL column, miniDAWN and Optilab detectors; samples loaded at 300 μl and 50 μM; both purified
[2] = target: Trx-tagged PDZD7 HHD-L wild type (HHD 508–646) (Mus musculus) (UniProt E9Q9W7); experiment: as above

binding [1]: no binding (tested: 50 μM)
B1: PDZD7 HHD (harmonin homology domain, a.a. 546–646) (domain or fragment, UniProt E9Q9W7 546-646)
chain: TVNEQVQAWESRRPLIQDLARRLLTDDEVLAVTRHCSRYVHEGGVEDLVRPLLAILDRPTKLLLLRDIRSVVAPTDLGRFDSMVMPVELEAFEALKSRAVG

binding [2]: no binding (tested: 50 μM)
B2: Trx-tagged PDZD7 HHD-L wild type (HHD 508–646) (domain or fragment, UniProt E9Q9W7 508-646)
chain: AGSVGPVQKFVTWRLRRDRERGRALLSARSGSPSGQAPTVNEQVQAWESRRPLIQDLARRLLTDDEVLAVTRHCSRYVHEGGVEDLVRPLLAILDRPTKLLLLRDIRSVVAPTDLGRFDSMVMPVELEAFEALKSRAVG
